PubChem BioAssay AID493246, Drosophila RNAi Screening Center | 2011
Aim: 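Identify essential fly genes by loss of cell viability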 (primary screen). Cell system: Drosophila Kc and S2R+ cells. Reagents: long dsRNA against Drosophila genes. Measurement: 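Cell number per well after knock-down, printed as raw plate values; calls were based on per-plate z-scores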. Reading the numbers: Kc cell number and S2R+ cell number: higher = more cells remaining. Rule for the call: 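Counted as a hit if cell number falls by a z-score of at least 3 within its plate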.
In all, the deposit lists about 21,000 reagents; this is an unselected part of those with a known target gene and a result. Of all reagents, 429 (2%) got an active call. 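Values are raw and not normalised between plates; calls rest on per-plate z-scores that were not deposited.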 Not stated in the record: the amount of reagent, the time to read-out.

| Target gene | DRSC id | Kc cell number, rep 1 | Kc cell number, rep 2 | S2R+ cell number, rep 1 | S2R+ cell number, rep 2 | outcome |
| --- | --- | --- | --- | --- | --- | --- |
| Mipp1 (Multiple inositol polyphosphate phosphatase 1) | DRSC11223 | 1.53e6 | 1.71e6 | 1.22e6 | 1.27e6 | inactive |
| Pburs (Partner of Bursicon) | DRSC02483 | 1.64e6 | 1.64e6 | 1.35e6 | 1.47e6 | inactive |
| Tasp1 (Taspase 1) | DRSC10495 | 1.57e6 | 1.61e6 | 1.27e6 | 1.36e6 | inactive |
| CG34280 | DRSC13229 | 1.63e6 | 1.67e6 | 1.03e6 | 1.21e6 | inactive |
| Golgin97 (Golgin 97) | DRSC06895 | 1.36e6 | 1.51e6 | 1.02e6 | 8.62e5 | inactive |
| TMEM216 (Transmembrane protein 216) | DRSC16378 | 1.37e6 | 1.58e6 | 1.25e6 | 1.37e6 | inactive |
| CG13063 | DRSC09946 | 1.57e6 | 1.53e6 | 1.18e6 | 1.34e6 | inactive |
| CG10616 | DRSC09750 | 1.40e6 | 1.45e6 | 1.32e6 | 1.26e6 | inactive |
| GstD10 (Glutathione S transferase D10) | DRSC15346 | 1.46e6 | 1.36e6 | 1.19e6 | 1.28e6 | inactive |
| HP5 (Heterochromatin protein 5) | DRSC19773 | 6.47e5 | – | 8.45e5 | – | inactive |
| PGAP5 (Post-GPI attachment to proteins 5) | DRSC03089 | 1.70e6 | 1.84e6 | 1.33e6 | 1.46e6 | inactive |
| CG10357 | DRSC08155 | 1.40e6 | 1.26e6 | 9.95e5 | 1.18e6 | inactive |
| Arl6 (ADP ribosylation factor-like 6) | DRSC07031 | 1.46e6 | 1.58e6 | 1.19e6 | 1.26e6 | inactive |
| CG12395 | DRSC19453 | 1.50e6 | 1.54e6 | 1.16e6 | 1.22e6 | inactive |
| CG12589 | DRSC12215 | 1.95e6 | 1.95e6 | 1.38e6 | 1.67e6 | inactive |
| Cyp305a1 (Cytochrome P450 305a1) | DRSC11126 | 1.44e6 | 1.52e6 | 1.26e6 | 1.30e6 | inactive |
| Stam (Signal transducing adaptor molecule) | DRSC03444 | 1.19e6 | 1.32e6 | 1.16e6 | 1.20e6 | inactive |
| CG13423 | DRSC06386 | 1.60e6 | 1.66e6 | 1.31e6 | 1.47e6 | inactive |
| Cyt-c1L (Cytochrome c1-like) | DRSC14860 | 1.55e6 | 1.56e6 | 9.88e5 | 1.09e6 | inactive |
| CG14245 | DRSC14740 | 1.57e6 | 1.68e6 | 1.08e6 | 1.14e6 | inactive |
| rgr (regular) | DRSC06487 | 1.40e6 | 1.54e6 | 1.11e6 | 1.09e6 | inactive |
| rgr (regular) | DRSC07229 | 1.30e6 | 1.42e6 | 1.11e6 | 1.18e6 | inactive |
| Arv1 (ACAT-related protein required for viability 1) | DRSC11491 | 1.42e6 | 1.52e6 | 1.15e6 | 1.31e6 | inactive |
| RpL7A (Ribosomal protein L7A) | DRSC18709 | 1.03e6 | 1.04e6 | 5.58e5 | 6.75e5 | active |
| CG5167 | DRSC15728 | 1.39e6 | 1.52e6 | 1.36e6 | 1.45e6 | inactive |
| CG30122 | DRSC06776 | 1.52e6 | 1.55e6 | 1.18e6 | 1.24e6 | inactive |
| CG30122 | DRSC06935 | 1.67e6 | 1.70e6 | 1.26e6 | 1.33e6 | inactive |
| CtBP (C-terminal Binding Protein) | DRSC16617 | 1.64e6 | 1.77e6 | 1.06e6 | 1.13e6 | inactive |
| pds5 | DRSC06670 | 1.35e6 | 1.36e6 | 1.12e6 | 1.17e6 | inactive |
| CG15130 | DRSC02430 | 1.54e6 | 1.62e6 | 1.23e6 | 2.95e5 | inactive |
| CG6962 | DRSC16153 | 1.30e6 | 1.40e6 | 7.90e5 | 9.25e5 | inactive |
| CG30429 | DRSC04040 | 1.46e6 | 1.49e6 | 9.67e5 | 1.03e6 | inactive |
| CG31643 | DRSC00906 | 1.56e6 | 1.61e6 | 1.08e6 | 1.25e6 | inactive |
| CG9213 | DRSC20170 | 5.49e5 | – | 7.92e5 | – | inactive |
| PIG-N (Phosphatidylinositol glycan anchor biosynthesis class N) | DRSC06837 | 1.48e6 | 1.54e6 | 1.23e6 | 1.33e6 | inactive |
| dpr17 (defective proboscis extension response 17) | DRSC12885 | 1.33e6 | 1.52e6 | 1.06e6 | 1.13e6 | inactive |
| dpr17 (defective proboscis extension response 17) | DRSC14957 | 1.36e6 | 1.24e6 | 8.62e5 | 9.38e5 | inactive |
| dpr17 (defective proboscis extension response 17) | DRSC14958 | 1.66e6 | 1.55e6 | 1.28e6 | 1.34e6 | inactive |
| CG10527 | DRSC04078 | 1.39e6 | 1.45e6 | 1.02e6 | 1.10e6 | inactive |
| CG6495 | DRSC01993 | 1.28e6 | 1.34e6 | 1.03e6 | 1.10e6 | inactive |
| Hrb98DE (Heterogeneous nuclear ribonucleoprotein at 98DE) | DRSC16709 | 5.61e5 | – | 8.58e5 | – | inactive |
| mlt (mulet) | DRSC06120 | 1.37e6 | 1.40e6 | 1.14e6 | 1.19e6 | inactive |
| Not11 (CCR4-NOT transcription complex subunit 11) | DRSC04204 | 1.51e6 | 1.53e6 | 1.24e6 | 1.40e6 | inactive |
| CG14356 | DRSC14819 | 1.47e6 | 1.23e6 | 7.88e5 | 7.15e5 | inactive |
| APC10 (Anaphase Promoting Complex subunit 10) | DRSC06071 | 1.59e6 | 1.64e6 | 1.12e6 | 1.25e6 | inactive |
| abs (abstrakt) | DRSC12372 | 1.84e6 | 1.95e6 | 1.17e6 | 1.34e6 | inactive |
| jhamt (juvenile hormone acid methyltransferase) | DRSC01985 | 1.65e6 | 1.59e6 | 1.28e6 | 1.49e6 | inactive |
| CG12236 | DRSC17830 | 1.73e5 | – | 3.31e5 | – | active |
| CG12236 | DRSC17831 | 1.52e6 | 1.47e6 | 1.12e6 | 1.18e6 | inactive |
| tra (transformer) | DRSC11405 | 1.23e6 | 1.38e6 | 1.25e6 | 1.31e6 | inactive |
| Hel25E (Helicase at 25E) | DRSC03342 | 9.78e5 | 1.07e6 | 3.52e5 | 6.92e5 | inactive |
| CG11664 | DRSC18650 | 1.52e6 | 1.47e6 | 1.04e6 | 1.12e6 | inactive |
| sip1 (septin interacting protein 1) | DRSC03609 | 1.49e6 | 1.34e6 | 1.06e6 | 1.14e6 | inactive |
| SmydA-2 (SET and MYND domain containing, arthropod-specific, member 2) | DRSC10296 | 1.78e6 | 1.89e6 | 1.41e6 | 1.58e6 | inactive |
| Kap-alpha3 (karyopherin alpha3) | DRSC16976 | 1.33e6 | 1.39e6 | 7.53e5 | 8.80e5 | active |
| CG6290 | DRSC19979 | 1.64e6 | 1.65e6 | 1.12e6 | 1.21e6 | inactive |
| Tace | DRSC16340 | 5.31e5 | – | 8.24e5 | – | inactive |
| dan (distal antenna) | DRSC14406 | 1.59e6 | 1.49e6 | 1.33e6 | 1.40e6 | inactive |
| p-cup (presidents-cup) | DRSC19513 | 1.48e6 | 1.47e6 | 1.05e6 | 1.16e6 | inactive |
